From publication PMC11108907
These are yes or no findings as the source states them, for the method shown. In cells and extracts the contact can be indirect. Binding can be weak; no strength is given.

Protein sequences, listed by entry. Tags and fused reporters are not part of them. Lines headed by an entry give the natural chain unless they say otherwise; changes in a name come on top.
UniProt P63331: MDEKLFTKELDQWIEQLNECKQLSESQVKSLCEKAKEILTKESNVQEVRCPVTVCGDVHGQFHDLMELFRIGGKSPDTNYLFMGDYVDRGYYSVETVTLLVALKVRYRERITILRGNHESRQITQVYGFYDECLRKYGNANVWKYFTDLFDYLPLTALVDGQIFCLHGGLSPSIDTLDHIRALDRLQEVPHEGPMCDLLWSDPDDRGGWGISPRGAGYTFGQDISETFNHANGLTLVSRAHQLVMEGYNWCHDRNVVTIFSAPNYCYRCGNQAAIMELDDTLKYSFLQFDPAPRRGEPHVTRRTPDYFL
UniProt P63159: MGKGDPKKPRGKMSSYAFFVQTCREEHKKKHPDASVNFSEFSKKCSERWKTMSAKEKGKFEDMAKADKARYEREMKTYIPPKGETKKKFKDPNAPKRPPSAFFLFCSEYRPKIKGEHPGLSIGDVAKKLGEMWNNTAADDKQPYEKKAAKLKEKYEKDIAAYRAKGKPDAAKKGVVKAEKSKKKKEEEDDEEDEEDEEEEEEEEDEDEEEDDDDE

Legend:
[1] = target: protein phosphatase 2 A catalytic subunit (PP2Ac) (rat (endogenous in SD rat brain tissue)) (UniProt P63331); test: co-IP; Whole tissue lysates of rats (Control, SS, SS + LGA and SS + HGA groups) immunoprecipitated with anti-HMGB1, anti-PP2Ac or anti-PKCα antibody overnight at 4 °C, captured on protein A/G agarose beads, then immunoblotted
[2] = target: high-mobility group box 1 (HMGB1) (rat (endogenous in SD rat brain tissue)) (UniProt P63159); test: as above

Row | binding [1] | binding [2] | Substance
1 | binds |  | high-mobility group box 1 (HMGB1) (from UniProt P63159 1-215)
2 |  | binds | protein phosphatase 2 A catalytic subunit (PP2Ac) (from UniProt P63331) (enzyme)
